Measurements from patent US7494780B2, “Epididymis-specific defensin for evaluating and regulating male fertility” (The Chinese University of Hong Kong, priority 2004, dated 2009).
For at least one compound, name, drawing or mass did not settle the structure.

Assays:
immature sperm = assay: Ca2+ uptake of immature sperm (Fura-2) in Bin-T84 conditioned medium; format: cell-based, rat; conditions: nifedipine 0.5 μM, verapamil 1 μM, pimozide 1 μM
immature rat caput sperm = assay: Coculture of immature sperm with epithelial cells, sperm motility by computer-assisted sperm analysis (CASA); format: cell-based; conditions: nifedipine 0.5 μM

With `O=c1[nH]c2ccccc2n1C1CCN(CCCC(c2ccc(F)cc2)c2ccc(F)cc2)CC1` [pimozide] the “block of the Ca2+ uptake induced by Bin-T84-conditioned medium” value (immature sperm) was “not” and the Bin1b-induced sperm motility (immature rat caput sperm) was “less effective”.
